From patent publication US6150325A, “Bicyclic tachykinins antagonists, preparation thereof and their use in pharmaceutical compositions” (A. Menarini Industrie Farmaceutiche Riunite S.r.l., priority 1995, dated 2000)
At least one peptide structure holds a part that was inferred or is arguable (an end, a ring closure or a residue). Positions of bridges follow the written chain, without caps; N, C: chain ends. Non-standard residues stand in square brackets, D forms with d. Residues, ends and D or L forms follow the SMILES beside them. *: point of attachment. X1 = CC(=O)OC[C@H]1O[C@@H](N*)[C@H](OC(C)=O)[C@@H](OC(C)=O)[C@@H]1OC(C)=O; Dap = NC[C@H](N)C(=O)O

Target: T1, neurokynin A (NKA) receptor (Oryctolagus cuniculus, UniProt P79218)
T1 construct: in vitro test using the pulmonary artery of a rabbit (RPA); from tissue; host or cells: rabbit pulmonary artery (RPA)
T1 sequence (P79218 1-384): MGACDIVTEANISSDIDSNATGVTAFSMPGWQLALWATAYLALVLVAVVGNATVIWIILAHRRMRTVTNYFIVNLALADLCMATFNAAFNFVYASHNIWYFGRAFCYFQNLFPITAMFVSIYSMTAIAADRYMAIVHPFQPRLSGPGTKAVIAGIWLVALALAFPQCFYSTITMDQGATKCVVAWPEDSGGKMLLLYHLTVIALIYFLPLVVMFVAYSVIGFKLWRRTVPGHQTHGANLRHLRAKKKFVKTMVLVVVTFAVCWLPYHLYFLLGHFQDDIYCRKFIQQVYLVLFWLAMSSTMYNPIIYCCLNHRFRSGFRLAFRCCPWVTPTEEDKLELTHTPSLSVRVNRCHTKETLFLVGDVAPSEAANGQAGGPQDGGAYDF
Assay: in vitro test using the pulmonary artery of a rabbit (RPA)
Assay type: cell-based

CC(=O)OC[C@H]1O[C@@H](NC(=O)C[C@@H]2NC(=O)[C@H](CC(C)C)NC(=O)[C@@H]3CNC(=O)C[C@H](NC2=O)C(=O)N[C@@H](Cc2c[nH]c4ccccc24)C(=O)N[C@@H](Cc2ccccc2)C(=O)N3)[C@H](OC(C)=O)[C@@H](OC(C)=O)[C@@H]1OC(C)=O [Compound 2, cyclo([Asn((Ac4 O)-β-D-Glc)-Asp-Trp-Phe-Dap-Leu]cyclo(2β-5β))] (cyclo(D(X1)DWF[Dap]L); lactam 2-5)
pKB: 8.67
